Source: PubChem BioAssay AID1347423 (Functional Genomics Laboratory (NCATS/FGL), 2020)
The whole screen tested about 52,000 sequences, of which about 210 (0.4%) were called active.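 The calls were made as follows: active = gene whose silencing raises cell survival under the drug, median off-target-corrected z-score across its silencing RNAs 2 or more; inactive = the rest.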 This is one part of the list.

assay: Resistance to Poly (ADP-Ribose) Polymerase inhibitor: Gene Identification via Genome-wide siRNA Screen; conditions: mouse BRCA2 R2336H ES cells, olaparib, CellTiter-Glo viability; stronger effect = higher value
Procedure, shortened: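 Mouse BRCA2 R2336H ES cells were reverse-transfected with siRNA (20 nM final), treated at 48 h with 500 nM olaparib, and read by CellTiter-Glo after 72 h. Scores: MAD-based z per siRNA, median per gene, seed off-target correction.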

Row | Sequence | z-score
1 | GCGGGAAAAUGAGACCAAATT against Bin3 | inactive: 0.463
2 | CUUCUUGGUGGGUCUGACUTT against Taar7e | inactive: -1.64
3 | GGAUAACCACGACAAAAUATT against Ttc7 | inactive: -0.209
4 | GGCCACUUUACUGUAGCUGTT against LOC381062 | inactive: 0.316
5 | GCUCUUCUUCUUCUCCUUGTT against Olfr1411 | inactive: 0.3
6 | GGUAGUCAUCAGCUACUUCTT against Slc31a1 | inactive: 2.12
7 | GCACAGCUCUACAUAAUUUTT against Olfr312 | inactive: -1.11
8 | GGACAAUUACUCCAAAAUUTT against Tnfsf10 | inactive: 0.0656
9 | GGAAAGAGGAAGAUAAAGUTT against 2310002L09Rik | inactive: -0.113
10 | GGAAAUGUCUUGUCACUAATT against Bzw1 | inactive: 0.0868
11 | GGUCUUCCGAGAAGGUUAATT against Chst4 | inactive: 0.0912
12 | GGUCCACUAAGAAGACAUATT against Fibcd1 | inactive: 0.978
13 | GGAGGAUAAGGAUGUCUCATT against A330021E22Rik | inactive: 0.827
14 | GUCCAGAUGGCUAAUUCUATT against Rpl23a | inactive: -3.2
15 | GCAUUAUCAGAACCAAGGGTT against 4930451F05Rik | inactive: -1.02
16 | GUUUAUCCUUAUGGGUUUATT against Olfr456 | inactive: 0.786
17 | GGAAAUGGCACAAGAAGUCTT against Tslp | inactive: -0.131
18 | GGCUAACAACUUCUACAUCTT against Wasf3 | inactive: -0.652
19 | GGAACUAACCAACGACUAATT against 2610019F03Rik | inactive: -0.643
20 | GGUGCUGUGUAAUCACCGATT against Psmc2 | inactive: -0.6
21 | CCUCAUAUAUCCCUAAUUATT against Camk1g | inactive: 0.254
22 | CCCAAACACCAACCAACUGTT against Unc93a | inactive: -2.13
23 | GCAAGUAUACACCUCUCAATT against Slc6a12 | active: 2.24
24 | GAUCCUUUCCUUCUUCCUCTT against Olfr1086 | inactive: -0.0159
25 | GGGCUAUCUUCUGAUUGGCTT against Zp3r | inactive: 0.633
26 | CGUCAAAGGAGACAGCUUUTT against 1810017N16Rik | inactive: -0.603

Row | Sequence | z-score
27 | GGAGGUCAGAAGGUGUGUUTT against Rad52 | inactive: -1.41
28 | GGAAAAGGGUAAACAAACATT against Car13 | inactive: 2.77
29 | GGAUUUCAGCUUCCAUUUUTT against Eif2b2 | inactive: 0.205
30 | CCACGGAUACUUUGAACAUTT against 1810054O13Rik | inactive: -0.467
31 | GCAUAAUUCAGUUGAUUACTT against LOC382105 | inactive: 1.49
32 | GGAUAGCAGCUGAGUUUUATT against Asb5 | inactive: 0.499
33 | GGCCUCCUAUAGACGGGAUTT against Vdac3 | inactive: -0.623
34 | GGAGGAAGAAAACAUCUCATT against Msh3 | inactive: -0.365
35 | GGGAAUGGCUAAUGUUUAUTT against Stk38l | inactive: -1.09
36 | GCUAUUUCAUUGGUUGGCUTT against Odf4 | inactive: 0.455
37 | GCAACGAAGACAAAUUAUUTT against Mid1 | inactive: 0.623
38 | GGAGGCUGUUGUGGAUCUUTT against Acin1 | inactive: -2.13
39 | GGGUUGGAUAGAAUAUUGUTT against Xkh | inactive: 0.135
40 | CGGUGGCAAAAUGAGAAGUTT against Cd79a | inactive: -0.334
41 | GGACUACGCAGUCUCUACATT against Ddah1 | inactive: 0.741
42 | CCCAGGACAUCGUCACAGATT against Prkx | inactive: -1.7
43 | GUAGUAACCAGAUCUUAUATT against V1rc2 | inactive: -0.0654
44 | GCUUGUGACUUAGAUUCUUTT against Rab8b | inactive: -0.428
45 | AUCAGGGAUCCUAACAUCATT against Ly6c | inactive: 1.48
46 | GGACCACCUGAAGAACCACTT against Plagl1 | inactive: -0.375
47 | CCAAGAUAUCGACUGAUAUTT against AI159731 | inactive: -0.437
48 | GCAAGAAAUGGACCGGUAGTT against Timm17a | inactive: -1.22
49 | GGUACACCAGGAAUAGACGTT against Prlpe | inactive: -0.216
50 | GCUCAUUGCACUUGCCAAGTT against Tcea2 | inactive: 0.978
51 | CCUAAACUCACUCUUGUGUTT against Chrna6 | inactive: -0.0561
52 | CCUGGCUAAGCUAGAGAAUTT against BC017634 | inactive: -0.551

Row | Sequence | z-score
53 | GGUGUUCAGGAGAUGAUGCTT against Ris2 | inactive: 0.835
54 | GGGUCCUAAGGGAUUUAUUTT against Klf16 | inactive: 0.377
55 | CCAUUAACGUAAAUUCUGUTT against AI505652 | inactive: 0.701
56 | CGGUUACUUGCUCUCCUCCTT against 1700091F14Rik | inactive: 0.893
57 | GCACUUCGCGCAGUCUUCUTT against 6430526N21Rik | inactive: -1.04
58 | GGUGGCCAUUCUUCUGUUCTT against Dnclc1 | inactive: -0.201
59 | CCAUGAGGCGUAUCAUUUUTT against Phlda3 | inactive: 1.57
60 | GCAAAUUAUUGAGAGCCUGTT against Prlpm | inactive: -1.22
61 | AGCAGGAGUUCGAACAUGGTT against Hoxb4 | inactive: -1.21
62 | CCUACUCGUCUCUUUCACCTT against 0610007A15Rik | inactive: 0.85
63 | GCCUGCACUGUUGAACUAGTT against Tomm40l | inactive: -0.012
64 | GCUUACCGAUGGGAUGACGTT against Omd | inactive: 0.0811
65 | GGUUUGCUGAGAAAUUAACTT against Btg3 | inactive: 0.682
66 | CCUUAGCUGUCCUUGUGGUTT against LOC545475 | inactive: 0.496
67 | GUGAUGAGAGGCCUUUCACTT against V1rc4 | inactive: 1.75
68 | CCCAUUAUUGGCACUACAATT against LOC434285 | inactive: -0.98
69 | GGAACAGAUACAGAAAUCCTT against Cstf2 | inactive: 0.739
70 | GCCUUCCGCUACCUUCUUATT against Ccl19 | inactive: 1.08
71 | GCUCUUACCACUGAUAGGATT against 6330579B17Rik | inactive: 0.111
72 | GGAAGGGUAUAGCCAGUACTT against 1500006O09Rik | inactive: 0.896
73 | GGAGUUUCCUAGUAAGGCCTT against LOC432552 | inactive: 1.16
74 | GCAAUUACCUCUGAAAGGCTT against 1700011H14Rik | inactive: 0.742
75 | GGUUUCUGAACAAAGCCAGTT against Mospd1 | inactive: -1.28
76 | GGGUUCUAUAGUCUCCACCTT against LOC544763 | inactive: 0.642
77 | CGGUAUAGUAGAUACUUAATT against Picalm | inactive: 0.107
78 | CCUUCUAAUCUUUUUGCCUTT against Polr3k | inactive: 1.21

Reprinted at random: 5 records from the list, in no set order.
Row | Sequence | z-score
63 | GCCUGCACUGUUGAACUAGTT against Tomm40l | inactive: -0.012
75 | GGUUUCUGAACAAAGCCAGTT against Mospd1 | inactive: -1.28
57 | GCACUUCGCGCAGUCUUCUTT against 6430526N21Rik | inactive: -1.04
53 | GGUGUUCAGGAGAUGAUGCTT against Ris2 | inactive: 0.835
64 | GCUUACCGAUGGGAUGACGTT against Omd | inactive: 0.0811

(next part)

Row | Sequence | z-score
79 | GCUCAUUCUCAAAGGCUUATT against Rdh12 | inactive: -0.689
80 | GGGAUGGACAUCUUGUUUUTT against Eif4a1 | inactive: -1.86
81 | CCAUGGACCCUUUUUUUGGTT against BC020025 | inactive: 1.64
82 | GCCAUUGCUAUCCAUCGUGTT against Bat1a | inactive: -2.21
83 | GGCAGCCCUCAAGUUAAUCTT against Zfp612 | inactive: -1.81
84 | GGAUAUGGAAGAAGUUGUGTT against Olfr1089 | inactive: 0.483
85 | GGACUUCUUACUGGAAUCATT against AI315119 | inactive: 0.036
86 | GCAAGACUGACCUAGAUUATT against 6530401P13 | inactive: -0.601
87 | GGAUGGAUGACUCCUAUUGTT against Gse1 | inactive: -2
88 | GAUGCCUGACGAGAUAUUUTT against Scgb3a1 | inactive: -0.179
89 | GGUGUUGUGAGUGAAGAGGTT against Rbed1 | inactive: -1.17
90 | GGCCAGUAGAUCCUUCUAATT against Fgf16 | inactive: 0.554
91 | GGUAUGAAACCGUAUAAAUTT against Zfp60 | inactive: 0.135
92 | GGACUUCUCCUUUAAUAAUTT against Cox7a2l | inactive: -0.0527
93 | GGGCAGCAUCGGACUAAAUTT against Agtr1 | inactive: 1.22
94 | GGAAGAAAGGAAAAAAGCUTT against Gnrhr | inactive: 1.69
95 | CCACUGACAACAAGUUGUUTT against Glra2 | inactive: -1.23
96 | GGUUUUUCUCCUUGGUUAUTT against BC031593 | inactive: 0.00568
97 | GGUUCUUCAAGUCAGAUUUTT against Atp6v1b1 | inactive: 0.0425
98 | GCAAUGGAGAGCAGAAAUATT against C230012O17Rik | inactive: -0.723
99 | GCGUGACCAGUUCAGUGAATT against Tnfrsf17 | inactive: -1.45
100 | GGAGAGGAAAAUCAUCCUGTT against Rims2 | inactive: 1.88
101 | GGCUCCUGUAUCUUGAUGUTT against A230102I05Rik | inactive: 0.169
102 | GGUAAGGAAAACAAAUAUGTT against En1 | inactive: 0.217
103 | AUUCUGAACACUCCUCGGATT against C630041L24Rik | inactive: -0.69
104 | GGCCUUUAUUCAGAUGUCATT against Zfp96 | inactive: -1.58
